Earlier results as cited in patent US9789098B2, “Nootropic compositions for improving memory performance” (Pharnext, priority 2012, dated 2017).

Settings: scopolamine, reference [34]; cited from earlier work

CN1[C@@H]2C[C@@H](OC(=O)[C@H](CO)c3ccccc3)C[C@H]1[C@@H]1O[C@@H]12 [Scopolamine, scopolamine]
Tmax: about 3 hours
